This assay has as its target kinesin heavy chain (KHC) subunit of conventional kinesin (Doryteuthis pealeii (endogenous in squid axoplasm)) (UniProt P21613). Description: co-IP; anti-KHC antibody (H2) and protein-G beads from clarified lysates of squid axoplasms perfused with P^32-γ ATP and 500 nM GST or GST–AICD; washed with 50 mM HEPES, 200 mM NaCl, 0.5% Triton X-100, pH 7.4; SDS-PAGE and autoradiography.

Amino acid sequences for entries named in this document (tags omitted).
UniProt P21613: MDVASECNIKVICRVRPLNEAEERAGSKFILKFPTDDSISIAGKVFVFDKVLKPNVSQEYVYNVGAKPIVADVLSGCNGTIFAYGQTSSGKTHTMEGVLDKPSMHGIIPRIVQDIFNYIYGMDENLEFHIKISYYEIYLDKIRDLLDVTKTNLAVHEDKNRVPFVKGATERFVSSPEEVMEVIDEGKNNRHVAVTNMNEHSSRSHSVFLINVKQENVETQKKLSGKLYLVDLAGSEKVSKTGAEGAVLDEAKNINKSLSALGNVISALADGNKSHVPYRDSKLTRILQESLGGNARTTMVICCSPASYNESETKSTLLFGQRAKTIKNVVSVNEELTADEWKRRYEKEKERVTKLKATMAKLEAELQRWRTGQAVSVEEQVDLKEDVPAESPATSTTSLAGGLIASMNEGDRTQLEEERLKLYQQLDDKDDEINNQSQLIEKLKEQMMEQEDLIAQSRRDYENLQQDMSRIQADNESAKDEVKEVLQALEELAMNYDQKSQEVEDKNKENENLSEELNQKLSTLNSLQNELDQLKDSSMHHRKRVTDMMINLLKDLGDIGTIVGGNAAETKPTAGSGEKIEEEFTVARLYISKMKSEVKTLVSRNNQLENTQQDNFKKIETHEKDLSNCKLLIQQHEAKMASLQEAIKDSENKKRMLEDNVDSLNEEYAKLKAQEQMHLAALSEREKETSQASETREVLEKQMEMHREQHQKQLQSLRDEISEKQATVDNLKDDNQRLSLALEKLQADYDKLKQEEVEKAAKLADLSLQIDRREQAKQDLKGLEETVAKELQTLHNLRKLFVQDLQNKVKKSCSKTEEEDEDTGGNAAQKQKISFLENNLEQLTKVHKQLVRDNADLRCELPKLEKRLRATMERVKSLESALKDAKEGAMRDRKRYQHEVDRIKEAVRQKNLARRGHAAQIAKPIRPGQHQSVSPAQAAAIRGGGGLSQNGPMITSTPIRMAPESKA

No constants are given. Whether binding was seen depends on the method and setting. Binding seen in cells or lysates may run through a third protein. Some results given as binding are weak or reduced against the parent protein; the word gives no strength.

B1: kinesin light chain (KLC) subunit of conventional kinesin (protein, UniProt P46825 1-571)
chain: MEVTQTVKSYRIKKIEEIGKMTALSQEEIISNTKTVIQGLDTLKNEHNQILNSLLTSMKTIRKENGDTNLVEEKANILKKSVDSIELGLGEAQVMMALANHLQHTEAEKQKLRAQVRRLCQENAWLRDELANTQQKLQMSEQKVATIEEEKKHLEFMNEMKKYDTNEAQVNEEKESEQSSLDLGFPDDDDDGGQPEVLSPTQPSAMAQAASGGCEIPARLRTLHNLVIQYASQGRYEVAVPLCKQALEDLEKTSGHDHPDVATMLNILALVYRDQGKYKEAANLLNDALGIREKTLGPDHPAVAATLNNLAVLYGKRGKYKDAEPLCKRALVIREKVLGKDHPDVAKQLNNLALLCQNQGKYEEVERYYQRALEIYQKELGPDDPNVAKTKNNLASAYLKQGKYKQAEILYKEVLTRAHEKEFGKVDDDNKPIWMQAEEREENKAKYKDGAPQPDYGSWLKAVKVDSPTVTTTLKNLGALYRRQGKYEAAETLEECALRSRKSALEVVRQTKISDVLGSDFSKGQSPKDRKRSNSRDRNRRDSMDSVSYEKSGDGDEHEKSKLHVGTSHKQ
modifications: P^32-radiolabeled (phosphorylated in axoplasm with P^32-γ ATP), sites not stated
Turning to B1, the binding entry is on record as “binds”.

Source of the values: PMC10572015.
